From the supplement of paper PMC10849652
The list shows a part of the results.

By UniProt entry, the sequences of proteins in these tests, tags left out. Where a name states a change or a piece, a line headed by the entry shows the natural chain unless it says otherwise.
UniProt Q9NRZ9: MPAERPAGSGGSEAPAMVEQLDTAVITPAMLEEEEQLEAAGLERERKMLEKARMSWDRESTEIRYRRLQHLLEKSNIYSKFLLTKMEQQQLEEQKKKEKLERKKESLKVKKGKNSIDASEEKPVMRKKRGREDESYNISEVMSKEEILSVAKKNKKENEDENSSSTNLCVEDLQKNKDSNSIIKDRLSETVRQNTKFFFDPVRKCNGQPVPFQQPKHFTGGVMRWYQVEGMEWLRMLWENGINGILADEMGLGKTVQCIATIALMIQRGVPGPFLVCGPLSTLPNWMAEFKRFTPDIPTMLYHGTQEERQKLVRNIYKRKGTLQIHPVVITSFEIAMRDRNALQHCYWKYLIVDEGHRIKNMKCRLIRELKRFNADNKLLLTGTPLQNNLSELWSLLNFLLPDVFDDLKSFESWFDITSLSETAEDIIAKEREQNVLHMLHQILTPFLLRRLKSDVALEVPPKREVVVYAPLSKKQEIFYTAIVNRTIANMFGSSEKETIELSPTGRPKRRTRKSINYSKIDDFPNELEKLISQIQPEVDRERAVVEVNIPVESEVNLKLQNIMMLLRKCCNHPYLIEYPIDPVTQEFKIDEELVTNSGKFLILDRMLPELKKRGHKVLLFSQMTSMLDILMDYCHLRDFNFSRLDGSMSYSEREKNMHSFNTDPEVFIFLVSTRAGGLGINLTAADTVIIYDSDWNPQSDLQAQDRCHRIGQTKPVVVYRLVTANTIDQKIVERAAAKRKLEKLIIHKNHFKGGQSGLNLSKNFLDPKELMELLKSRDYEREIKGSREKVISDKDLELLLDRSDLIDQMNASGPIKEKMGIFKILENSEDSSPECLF
UniProt O14929: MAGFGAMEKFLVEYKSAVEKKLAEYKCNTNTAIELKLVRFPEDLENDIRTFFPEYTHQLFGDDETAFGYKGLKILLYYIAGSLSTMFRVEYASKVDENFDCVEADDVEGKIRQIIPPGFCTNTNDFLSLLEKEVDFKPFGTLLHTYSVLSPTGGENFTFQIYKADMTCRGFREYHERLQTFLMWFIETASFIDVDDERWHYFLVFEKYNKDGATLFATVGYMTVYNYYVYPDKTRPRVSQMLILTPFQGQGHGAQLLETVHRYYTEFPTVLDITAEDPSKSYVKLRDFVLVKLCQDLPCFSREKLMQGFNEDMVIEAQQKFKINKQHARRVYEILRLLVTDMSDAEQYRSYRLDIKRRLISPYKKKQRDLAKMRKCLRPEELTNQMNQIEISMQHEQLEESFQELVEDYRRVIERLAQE
UniProt Q8WW33: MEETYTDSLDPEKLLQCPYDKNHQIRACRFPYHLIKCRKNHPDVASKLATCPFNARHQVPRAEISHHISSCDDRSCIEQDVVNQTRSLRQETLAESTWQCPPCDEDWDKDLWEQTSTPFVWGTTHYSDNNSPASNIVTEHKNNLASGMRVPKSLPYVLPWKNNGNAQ
UniProt Q9UBN7: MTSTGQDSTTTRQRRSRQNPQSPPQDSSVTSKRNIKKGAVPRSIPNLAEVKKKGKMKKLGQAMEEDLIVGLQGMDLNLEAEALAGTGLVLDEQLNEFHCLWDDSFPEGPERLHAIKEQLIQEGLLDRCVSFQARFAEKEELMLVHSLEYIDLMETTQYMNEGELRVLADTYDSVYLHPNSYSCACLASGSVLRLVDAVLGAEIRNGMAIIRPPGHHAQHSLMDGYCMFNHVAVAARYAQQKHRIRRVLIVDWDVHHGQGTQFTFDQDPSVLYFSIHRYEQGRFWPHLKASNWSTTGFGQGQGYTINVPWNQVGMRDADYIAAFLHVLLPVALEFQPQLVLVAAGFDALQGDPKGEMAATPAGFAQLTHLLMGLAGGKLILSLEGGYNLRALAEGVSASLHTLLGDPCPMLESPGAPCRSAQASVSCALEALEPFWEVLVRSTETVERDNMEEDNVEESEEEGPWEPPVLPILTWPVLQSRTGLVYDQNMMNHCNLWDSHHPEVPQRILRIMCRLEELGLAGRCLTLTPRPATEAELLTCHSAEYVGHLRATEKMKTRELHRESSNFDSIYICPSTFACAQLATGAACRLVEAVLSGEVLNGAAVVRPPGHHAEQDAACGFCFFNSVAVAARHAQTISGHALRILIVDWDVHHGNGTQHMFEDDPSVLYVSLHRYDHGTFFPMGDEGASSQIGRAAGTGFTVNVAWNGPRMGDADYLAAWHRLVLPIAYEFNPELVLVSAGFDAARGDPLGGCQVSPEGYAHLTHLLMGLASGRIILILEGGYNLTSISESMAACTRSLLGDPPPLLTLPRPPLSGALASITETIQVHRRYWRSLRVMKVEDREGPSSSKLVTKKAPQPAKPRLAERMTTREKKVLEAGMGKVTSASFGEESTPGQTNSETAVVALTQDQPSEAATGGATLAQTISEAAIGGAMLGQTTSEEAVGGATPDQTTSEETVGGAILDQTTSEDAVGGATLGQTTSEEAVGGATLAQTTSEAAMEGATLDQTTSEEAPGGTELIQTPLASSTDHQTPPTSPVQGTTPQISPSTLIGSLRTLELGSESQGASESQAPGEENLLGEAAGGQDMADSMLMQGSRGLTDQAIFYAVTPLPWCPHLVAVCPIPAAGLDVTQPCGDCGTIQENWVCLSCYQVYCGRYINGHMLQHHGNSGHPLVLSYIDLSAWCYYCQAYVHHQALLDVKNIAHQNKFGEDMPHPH
UniProt P07686: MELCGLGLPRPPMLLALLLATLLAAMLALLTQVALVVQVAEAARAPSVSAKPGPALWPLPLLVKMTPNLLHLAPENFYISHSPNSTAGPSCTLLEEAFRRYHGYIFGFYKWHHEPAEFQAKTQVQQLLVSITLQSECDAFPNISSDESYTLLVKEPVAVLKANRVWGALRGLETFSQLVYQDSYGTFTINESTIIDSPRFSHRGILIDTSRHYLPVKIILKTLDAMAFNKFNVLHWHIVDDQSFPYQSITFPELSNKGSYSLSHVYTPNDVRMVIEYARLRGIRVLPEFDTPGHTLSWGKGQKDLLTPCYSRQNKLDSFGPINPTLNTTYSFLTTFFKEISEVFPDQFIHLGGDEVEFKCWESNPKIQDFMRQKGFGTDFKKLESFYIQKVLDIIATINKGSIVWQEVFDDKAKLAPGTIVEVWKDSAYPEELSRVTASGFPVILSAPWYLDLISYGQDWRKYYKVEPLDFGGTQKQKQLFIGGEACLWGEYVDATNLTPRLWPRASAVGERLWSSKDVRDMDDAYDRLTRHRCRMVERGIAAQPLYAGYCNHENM
UniProt Q9NRV9: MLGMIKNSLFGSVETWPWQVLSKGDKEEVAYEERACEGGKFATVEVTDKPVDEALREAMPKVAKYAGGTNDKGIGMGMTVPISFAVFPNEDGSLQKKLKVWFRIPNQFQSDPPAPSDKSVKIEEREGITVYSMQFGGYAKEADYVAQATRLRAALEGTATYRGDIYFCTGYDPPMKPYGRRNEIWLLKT
UniProt Q9BXL5: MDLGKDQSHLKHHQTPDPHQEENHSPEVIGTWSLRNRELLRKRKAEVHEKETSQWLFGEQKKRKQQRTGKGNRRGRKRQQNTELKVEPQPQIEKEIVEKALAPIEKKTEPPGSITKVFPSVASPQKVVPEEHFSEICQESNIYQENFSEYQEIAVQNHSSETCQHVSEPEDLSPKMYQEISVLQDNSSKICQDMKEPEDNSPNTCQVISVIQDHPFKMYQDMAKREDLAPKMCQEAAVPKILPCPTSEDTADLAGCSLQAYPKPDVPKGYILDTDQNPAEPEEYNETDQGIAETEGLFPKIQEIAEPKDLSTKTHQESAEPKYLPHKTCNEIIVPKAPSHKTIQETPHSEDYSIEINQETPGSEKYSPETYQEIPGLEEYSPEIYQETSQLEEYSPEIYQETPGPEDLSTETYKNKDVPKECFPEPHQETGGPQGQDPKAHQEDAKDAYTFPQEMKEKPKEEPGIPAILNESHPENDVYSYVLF
UniProt P52657, whole entry, looked up: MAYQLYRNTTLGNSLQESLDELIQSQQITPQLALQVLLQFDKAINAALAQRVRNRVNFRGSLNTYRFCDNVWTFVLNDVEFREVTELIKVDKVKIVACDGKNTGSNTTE
UniProt P0C0S5, whole entry, looked up: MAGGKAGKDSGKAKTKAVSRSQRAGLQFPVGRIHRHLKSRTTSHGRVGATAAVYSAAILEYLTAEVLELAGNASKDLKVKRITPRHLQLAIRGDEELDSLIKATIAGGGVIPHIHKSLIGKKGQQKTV
UniProt P35269, whole entry, looked up: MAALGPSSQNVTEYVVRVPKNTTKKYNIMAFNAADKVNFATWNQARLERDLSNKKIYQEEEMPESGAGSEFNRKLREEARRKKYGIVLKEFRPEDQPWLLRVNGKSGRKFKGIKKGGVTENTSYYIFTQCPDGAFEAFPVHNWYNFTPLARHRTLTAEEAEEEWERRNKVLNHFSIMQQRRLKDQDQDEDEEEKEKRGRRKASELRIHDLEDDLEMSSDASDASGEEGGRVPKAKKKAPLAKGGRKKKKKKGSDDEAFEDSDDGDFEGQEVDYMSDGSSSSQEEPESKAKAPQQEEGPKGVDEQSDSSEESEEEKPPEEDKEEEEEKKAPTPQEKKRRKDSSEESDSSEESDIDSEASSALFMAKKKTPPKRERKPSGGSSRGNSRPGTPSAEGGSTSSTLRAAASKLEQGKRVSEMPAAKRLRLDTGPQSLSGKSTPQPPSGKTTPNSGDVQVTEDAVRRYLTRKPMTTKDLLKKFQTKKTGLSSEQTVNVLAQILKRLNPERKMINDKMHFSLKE
UniProt P42694: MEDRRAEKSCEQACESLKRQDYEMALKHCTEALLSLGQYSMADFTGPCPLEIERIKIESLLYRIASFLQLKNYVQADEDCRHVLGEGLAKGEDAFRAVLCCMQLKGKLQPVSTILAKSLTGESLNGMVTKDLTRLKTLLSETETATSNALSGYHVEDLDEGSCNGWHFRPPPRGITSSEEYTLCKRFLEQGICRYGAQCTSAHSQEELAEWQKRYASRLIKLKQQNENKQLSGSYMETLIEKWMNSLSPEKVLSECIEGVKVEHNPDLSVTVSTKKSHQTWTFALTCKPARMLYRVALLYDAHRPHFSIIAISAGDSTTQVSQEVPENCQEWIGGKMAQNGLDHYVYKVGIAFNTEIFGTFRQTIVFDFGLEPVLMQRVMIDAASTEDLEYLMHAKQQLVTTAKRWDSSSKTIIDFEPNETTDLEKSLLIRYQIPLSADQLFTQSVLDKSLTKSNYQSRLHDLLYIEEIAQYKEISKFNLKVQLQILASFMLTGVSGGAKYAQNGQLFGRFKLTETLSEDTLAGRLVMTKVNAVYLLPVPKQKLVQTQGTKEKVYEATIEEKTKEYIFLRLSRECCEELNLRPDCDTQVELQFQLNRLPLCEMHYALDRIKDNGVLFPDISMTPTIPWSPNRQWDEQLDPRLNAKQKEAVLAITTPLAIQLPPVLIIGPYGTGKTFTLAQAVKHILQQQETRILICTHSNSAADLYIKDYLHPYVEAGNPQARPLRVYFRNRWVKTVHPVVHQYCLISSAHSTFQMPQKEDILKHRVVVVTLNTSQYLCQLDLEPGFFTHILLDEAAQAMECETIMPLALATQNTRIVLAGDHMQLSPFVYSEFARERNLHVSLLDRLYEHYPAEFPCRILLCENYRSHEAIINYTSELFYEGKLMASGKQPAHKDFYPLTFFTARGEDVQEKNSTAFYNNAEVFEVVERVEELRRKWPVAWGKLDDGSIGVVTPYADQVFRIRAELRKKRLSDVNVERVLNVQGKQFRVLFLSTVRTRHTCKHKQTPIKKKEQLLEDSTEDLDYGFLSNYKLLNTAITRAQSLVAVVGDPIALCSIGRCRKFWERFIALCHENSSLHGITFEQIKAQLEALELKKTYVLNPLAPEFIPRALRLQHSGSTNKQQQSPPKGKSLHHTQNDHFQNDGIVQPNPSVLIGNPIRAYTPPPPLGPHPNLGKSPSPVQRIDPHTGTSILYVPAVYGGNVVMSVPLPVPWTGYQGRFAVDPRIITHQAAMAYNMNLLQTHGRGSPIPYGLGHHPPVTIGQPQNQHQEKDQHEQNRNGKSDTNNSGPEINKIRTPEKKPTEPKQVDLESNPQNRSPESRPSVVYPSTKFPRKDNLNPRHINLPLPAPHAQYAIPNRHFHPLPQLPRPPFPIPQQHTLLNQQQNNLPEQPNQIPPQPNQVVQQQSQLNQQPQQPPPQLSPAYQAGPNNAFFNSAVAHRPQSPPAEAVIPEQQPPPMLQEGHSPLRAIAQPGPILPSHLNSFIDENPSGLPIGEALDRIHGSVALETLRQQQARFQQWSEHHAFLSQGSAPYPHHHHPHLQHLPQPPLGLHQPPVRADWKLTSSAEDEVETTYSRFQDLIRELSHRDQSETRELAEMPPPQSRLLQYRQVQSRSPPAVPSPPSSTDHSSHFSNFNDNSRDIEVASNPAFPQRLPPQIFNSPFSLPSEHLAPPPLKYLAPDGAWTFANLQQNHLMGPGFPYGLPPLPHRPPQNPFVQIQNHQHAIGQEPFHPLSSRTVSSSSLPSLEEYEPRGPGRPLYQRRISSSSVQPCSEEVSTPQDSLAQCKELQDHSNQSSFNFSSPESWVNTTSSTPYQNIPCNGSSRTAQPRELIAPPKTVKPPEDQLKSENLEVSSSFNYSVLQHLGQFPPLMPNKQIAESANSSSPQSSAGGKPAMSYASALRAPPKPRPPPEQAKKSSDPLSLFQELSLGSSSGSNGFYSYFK

The targets below were run with Cc1ccc(NC(=O)c2ccc(CN3CC[C@H](N(C)C)C3)c(C(F)(F)F)c2)cc1Nc1nccc(-c2cncnc2)n1 [bafetinib] (assay: log2 fold change, soluble protein after heating vs DMSO (PISA); higher = thermal stabilisation; K562 cells, 10 uM, 30 min; active = over 0.2 and 3.5 SD of the protein, either way, in both replicates (recomputed)).
Outline: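 For each measurement, 10 μM compound was applied for 30 min to K562 cells at 2×10^6 cells/mL. Aliquots were heated for 3 min across 48°C-58°C, pooled, and extracted in PBS with 0.5% NP-40 at 4°C; the supernatant after 21,000xg for 90 min was soluble protein. This was quantified by TMTpro 16plex LC-MS/MS with channel sums equalised, and thermal stability was reported relative to control samples from duplicates, on a log2 fold-change scale.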
With HERC2 (UniProt O95714) the log2 fold change was inactive: 0.
In the case of HAX1 (UniProt O00165), the log2 fold change is reported as inactive: -0.103.
In the case of HEBP2 (UniProt Q9Y5Z4), the log2 fold change is reported as inactive: -0.022.
In the case of GYS1 (UniProt P13807), the log2 fold change is reported as inactive: 0.107.
In the case of HBA1 (UniProt P69905), the log2 fold change is reported as inactive: -0.013.
With H1-2 (UniProt P16403) the log2 fold change was inactive: 0.361.
For GTPBP3 isoform 2 (UniProt Q969Y2), the log2 fold change was inactive: -0.032.
For HELLS (UniProt Q9NRZ9), the log2 fold change was inactive: -0.201.
With GSKIP (UniProt Q9P0R6) the log2 fold change was inactive: 0.01.
In the case of HAT1 (UniProt O14929), the log2 fold change is reported as inactive: -0.115.
In the case of GTSF1 (UniProt Q8WW33), the log2 fold change is reported as inactive: -0.073.
HADH isoform 2 (UniProt Q16836) was tested, and the log2 fold change was inactive: -0.005.
In the case of HDHD2 (UniProt Q9H0R4), the log2 fold change is reported as inactive: 0.068.
For HDAC6 (UniProt Q9UBN7), the log2 fold change was inactive: -0.18.
With GSTP1 (UniProt P09211) the log2 fold change was inactive: -0.061.
With H1FX (UniProt Q92522) the log2 fold change was inactive: 0.248.
For HCLS1 (UniProt P14317), the log2 fold change was inactive: -0.055.
For GYPA (UniProt P02724), the log2 fold change was inactive: 0.012.
HEXB (UniProt P07686) was tested, and the log2 fold change was active: -0.468.
For HAUS4 (UniProt Q9H6D7), the log2 fold change was inactive: -0.069.
In the case of HEBP1 (UniProt Q9NRV9), the log2 fold change is reported as inactive: 0.081.
GXYLT1 (UniProt Q4G148) was tested, and the log2 fold change was inactive: -0.276.
In the case of HEMGN (UniProt Q9BXL5), the log2 fold change is reported as inactive: 0.008.
With HBG1 (UniProt P69891) the log2 fold change was inactive: -0.027.
In the case of HEXIM1 (UniProt O94992), the log2 fold change is reported as inactive: 0.006.
For HCCS (UniProt P53701), the log2 fold change was inactive: -0.154.
With GTPBP1 (UniProt O00178) the log2 fold change was inactive: -0.043.
With GYG1 (UniProt P46976) the log2 fold change was inactive: 0.237.
With GTF2A2 (UniProt P52657) the log2 fold change was inactive: -0.032.
For HEATR5B (UniProt Q9P2D3), the log2 fold change was inactive: -0.007.
In the case of H2AZ1 (UniProt P0C0S5), the log2 fold change is reported as inactive: 0.173.
GTF2F1 (UniProt P35269) was tested, and the log2 fold change was inactive: 0.007.
GSK3B isoform 2 (UniProt P49841) was tested, and the log2 fold change was inactive: -0.003.
For HDDC3 (UniProt Q8N4P3), the log2 fold change was inactive: -0.106.
In the case of GSPT1 isoform 3 (UniProt P15170), the log2 fold change is reported as inactive: -0.003.
In the case of HELZ (UniProt P42694), the log2 fold change is reported as inactive: 0.147.
HBZ (UniProt P02008) was tested, and the log2 fold change was inactive: -0.013.
In the case of HBS1L isoform 2 (UniProt Q9Y450), the log2 fold change is reported as inactive: -0.114.
For H1-3 (UniProt P16402), the log2 fold change was inactive: 0.392.
